Reference: PubChem BioAssay AID651768 (National Center for Advancing Translational Sciences (NCATS), 2012)
The whole screen tested about 360,000 compounds, of which about 1,700 (0.47%) were called active. This list was built around the results that the source calls inconclusive (neither active nor inactive); the mix of calls is not that of the screen. Calls follow the shape of the dose curve; as a rule, active = well fitted inhibition curve with a large enough effect; inconclusive = small, poorly fitted or top-dose-only effect; inactive = no such curve, though single readings can be large or run the other way. Where the call is inconclusive, the potency comes from a doubtful curve fit.
% is scaled to controls: 0 for no effect and ±100 for the full control effect; potency is read from the fitted curve at half-maximal effect.
Also: nearly all actives have a fitted effect of over 55% in size.

Protein sequences, listed by entry. Tags and fused reporters are not part of them.
UniProt Q14191, whole entry, looked up: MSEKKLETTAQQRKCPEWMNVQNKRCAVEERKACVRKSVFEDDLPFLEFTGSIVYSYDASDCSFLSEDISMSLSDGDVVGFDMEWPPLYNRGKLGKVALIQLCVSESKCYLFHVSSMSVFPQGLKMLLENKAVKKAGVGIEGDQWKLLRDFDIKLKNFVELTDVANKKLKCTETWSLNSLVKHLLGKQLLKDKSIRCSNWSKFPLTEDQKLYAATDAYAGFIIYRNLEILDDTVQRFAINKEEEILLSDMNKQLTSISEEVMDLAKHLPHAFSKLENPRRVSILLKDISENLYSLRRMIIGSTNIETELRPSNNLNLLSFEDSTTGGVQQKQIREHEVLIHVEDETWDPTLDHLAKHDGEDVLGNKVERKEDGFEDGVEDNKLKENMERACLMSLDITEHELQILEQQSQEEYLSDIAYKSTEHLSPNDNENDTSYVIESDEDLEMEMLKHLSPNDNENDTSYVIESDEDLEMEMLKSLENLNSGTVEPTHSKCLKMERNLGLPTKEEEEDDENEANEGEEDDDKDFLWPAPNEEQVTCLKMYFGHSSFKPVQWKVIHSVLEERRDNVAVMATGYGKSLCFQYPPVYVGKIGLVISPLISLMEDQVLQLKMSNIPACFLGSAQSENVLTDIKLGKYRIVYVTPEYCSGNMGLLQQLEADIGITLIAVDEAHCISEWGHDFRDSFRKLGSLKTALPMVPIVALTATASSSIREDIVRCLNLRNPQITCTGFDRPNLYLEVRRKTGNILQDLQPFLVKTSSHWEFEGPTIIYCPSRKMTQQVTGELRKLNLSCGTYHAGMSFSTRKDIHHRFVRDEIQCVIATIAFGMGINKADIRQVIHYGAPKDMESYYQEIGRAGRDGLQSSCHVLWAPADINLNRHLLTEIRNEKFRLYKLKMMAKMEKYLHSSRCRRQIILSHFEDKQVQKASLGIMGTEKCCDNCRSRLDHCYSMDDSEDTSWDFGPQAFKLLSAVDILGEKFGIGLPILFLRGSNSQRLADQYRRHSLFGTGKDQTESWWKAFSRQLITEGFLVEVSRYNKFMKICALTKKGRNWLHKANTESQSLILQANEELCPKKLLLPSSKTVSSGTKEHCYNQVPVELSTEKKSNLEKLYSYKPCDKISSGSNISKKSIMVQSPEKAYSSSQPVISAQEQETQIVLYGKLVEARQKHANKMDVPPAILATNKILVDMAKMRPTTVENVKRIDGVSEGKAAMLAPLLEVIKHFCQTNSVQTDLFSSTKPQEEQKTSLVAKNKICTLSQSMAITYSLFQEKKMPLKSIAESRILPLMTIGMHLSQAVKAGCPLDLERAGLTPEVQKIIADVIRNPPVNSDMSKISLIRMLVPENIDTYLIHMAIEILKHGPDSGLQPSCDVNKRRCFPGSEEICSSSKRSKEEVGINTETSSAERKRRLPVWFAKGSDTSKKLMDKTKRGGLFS

Each compound was assayed against Bifunctional 3'-5' exonuclease/ATP-dependent helicase WRN (Homo sapiens) (UniProt Q14191) (assay: qHTS for Inhibitors of WRN Helicase). Conditions: WRN helicase unwinding, fluorescent forked duplex, kinetic; activity change, negative = inhibition: at 114 µM (top of the series) unless noted.
Summary of the method: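 WRN at 20 nM final was preincubated with compound for 15 min at room temperature; reaction started with 100 nM forked duplex oligonucleotide carrying fluorophore and quencher plus 2 mM ATP (final). Unwinding followed kinetically by red fluorescence (ex 525/em 598 nm).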
For `CC(=O)c1cccc(N(CC(=O)N2CCCC2)S(C)(=O)=O)c1`, the “activity change, negative = inhibition” value was inactive: -7.4%. For `CCOc1ccc(CN(CC)C(=O)c2ccc3c(c2)[nH]c(=O)c(=O)n3CC)cc1OC`, the Potency was inconclusive: 15.8 µM [inhibitor, full curve, poor fit]. In the case of `CCS(=O)(=O)N1Cc2ccccc2CC1C(=O)N1CCN(c2ccccc2)CC1` (configuration not stated), the Potency is reported as inconclusive: 56.2 µM [inhibitor, partial curve]. In the case of `O=C1/C(=C/N(C(=O)c2ccco2)c2ccc(Br)cc2)Sc2ccccc21`, the Potency is reported as inconclusive: 28.2 µM [inhibitor, single point]. `O=C(CSCc1ccccc1)N1CCN(S(=O)(=O)c2cccc(F)c2)CC1` was tested, and the “activity change, negative = inhibition” value was inactive: 6.47%. With `COc1cc(NC(=S)Nc2ccc(Br)cc2Cl)c(OC)cc1Cl` the Potency was inconclusive: 20 µM [inhibitor, single point]. `Cc1ccc(CSc2nnc(SCC(=O)N/N=C/c3c[nH]c4ccccc34)s2)cc1` was tested, and the Potency was inconclusive: 25.1 µM [inhibitor, full curve, poor fit]. In the case of `COc1cc(/C=C2/SC(=S)N(Cc3ccccc3)C2=O)ccc1O`, the Potency is reported as active: 8.91 µM. For `N#CCSc1nn(-c2ccc(F)cc2)c(=S)s1`, the Potency was inconclusive: 28.2 µM [inhibitor, single point]. `O=C(NC1=NCCS1)c1cccc(S(=O)(=O)N2CCc3ccccc32)c1` was tested, and the “activity change, negative = inhibition” value was inactive: -6.27%. In the case of `N#Cc1c(SCC(=O)Nc2nncs2)sc2c(O)cc(=O)[nH]c12`, the Potency is reported as active: 14.1 µM. For `C=CCn1c(SCC(=O)c2ccc(O)c(O)c2)nnc1-c1ccc(C)cc1`, the Potency was inconclusive: 17.8 µM [inhibitor, full curve]. In the case of `Cc1ccc(C)c(C(=O)CN2Cc3ccccc3C2=O)c1`, the Potency is reported as inconclusive: 7.94 µM [inhibitor, full curve, poor fit]. `O=C(CSc1nnnn1-c1ccc(F)cc1)c1ccc(O)c(O)c1` was tested, and the Potency was inconclusive: 35.5 µM [inhibitor, partial curve]. With `COc1ccc(-n2nc3c(N4CCC(C(=O)NCCc5ccccc5C)CC4)nnc(C)c3c2C)cc1` the “activity change, negative = inhibition” value was inactive: -3.99%. `O=C(Nc1ccccc1F)c1cc(-c2ccco2)nc2ccccc12` was tested, and the Potency was inconclusive: 15.8 µM [inhibitor, full curve]. `CCC(=O)NC1=C(NC(C)c2ccccc2)C(=O)c2ccccc2C1=O` (configuration not stated) was tested, and the “activity change, negative = inhibition” value was inactive: 4.45%. With `O=C(c1cc(-c2ccco2)on1)N1CCc2ccccc2C1` the Potency was inconclusive: 12.6 µM [inhibitor, partial curve]. In the case of `COc1ccccc1CNC(=O)COC(=O)c1cc(-c2ccco2)nc2ccccc12`, the Potency is reported as active: 35.5 µM. `Cc1sc2ncnc(NCC(O)c3ccc([N+](=O)[O-])cc3)c2c1C` (configuration not stated) was tested, and the Potency was inconclusive: 89.1 µM [inhibitor, single point]. In the case of `Cc1ccc(-c2nnc(NC(=O)CCS(=O)(=O)c3ccc(F)cc3)o2)c(C)c1`, the Potency is reported as inconclusive: 20 µM [inhibitor, full curve]. With `c1ccc2c(c1)ncn2-c1ccc(-c2ccnc3ncnn23)cc1` the Potency was inconclusive: 79.4 µM [inhibitor, partial curve]. With `O=C(O)c1ccc(NC(CSCc2ccc(F)cc2)C(=O)O)c([N+](=O)[O-])c1` (configuration not stated) the “activity change, negative = inhibition” value was inactive: -1.96%. With `COc1ccc(S(=O)(=O)Nc2ccc(F)cc2)cc1N(C)S(=O)(=O)c1ccc(Cl)cc1` the “activity change, negative = inhibition” value was inactive: -26.6%. `CCc1c(C)sc(NC(=O)c2cc(C)no2)c1C#N` was tested, and the “activity change, negative = inhibition” value was inactive: 0.275%. With `COc1ccc(C(=O)OCC(=O)NCc2ccco2)cc1OC` the Potency was inconclusive: 100 µM [inhibitor, partial curve]. `O=C(NCCSc1ccccc1)c1ccccc1Cl` was tested, and the Potency was inconclusive: 22.4 µM [inhibitor, single point]. With `O=C(CSC1=NS(=O)(=O)c2ccccc21)Nc1ccccc1` the “activity change, negative = inhibition” value was inactive: 9.79%. `CCOc1ccc(NC(=O)Cn2sc3nc(C)cc(C)c3c2=O)cc1` was tested, and the Potency was active: 20 µM. With `Nc1cc(Nc2ccc(Br)cc2)nc(N)n1` the “activity change, negative = inhibition” value was inactive: -8.69%. In the case of `O=C1CN(S(=O)(=O)c2cc(C(=O)O)ccc2Cl)c2ccccc2N1`, the Potency is reported as inconclusive: 50.1 µM [inhibitor, partial curve]. For `CC(=O)Nc1ccc2nc(NC(=O)COc3ccc(C)cc3)sc2c1`, the Potency was inconclusive: 39.8 µM [inhibitor, single point]. For `CN(Cc1ccccc1Cl)C(=O)c1cnccc1C(F)(F)F`, the Potency was inconclusive: 39.8 µM [inhibitor, single point]. In the case of `COc1cccc(NC(=O)c2cn(C)c(=O)c3cc(OC)c(OC)cc23)c1`, the Potency is reported as inconclusive: 79.4 µM [inhibitor, single point]. For `Cc1nnc(N2CCN(c3ccccc3)CC2)[nH]c1=O`, the Potency was inconclusive: 79.4 µM [inhibitor, single point]. With `CN(CC(=O)Nc1ccc(F)cc1)C(=O)c1cc(-c2ccco2)nc2ccccc12` the Potency was inconclusive: 50.1 µM [inhibitor, partial curve]. For `CC1=NOC(=O)/C1=C/c1ccc2c(c1)OCO2`, the “activity change, negative = inhibition” value was inactive: -20.3%. In the case of `Cc1ccc(S(=O)(=O)CCC(=O)Oc2ccc3c(C)cc(=O)oc3c2)cc1`, the Potency is reported as inconclusive: 39.8 µM [inhibitor, full curve, poor fit]. For `O=C1C=CC(=Nc2ccc3c(c2)Cc2cc(F)ccc2-3)O1`, the Potency was inconclusive: 50.1 µM [inhibitor, partial curve]. With `C=CCOc1cccc(NC(=O)c2ccccc2SC)c1` the “activity change, negative = inhibition” value was inactive: 0.715%. With `C=C(CN(C)C)C(=O)c1cc(OC)c(OC)cc1OC` the Potency was inconclusive: 28.2 µM [inhibitor, partial curve]. `Cc1csc(N/N=C/c2ccc(O)c([N+](=O)[O-])c2)n1` was tested, and the Potency was inconclusive: 21.2 µM [inhibitor, partial curve]. For `CCn1c(C)nc2cc(C(=O)N/N=C(\C)c3ccc(N4CCOCC4)cc3)ccc21`, the “activity change, negative = inhibition” value was inactive: -4.88%. For `CC(=O)NC(N(C#N)c1nc(Cl)nc(N(C)C)n1)C(Cl)(Cl)Cl` (configuration not stated), the Potency was inconclusive: 39.8 µM [inhibitor, single point]. For `O=C(NNc1c2ccccc2nc2ccccc12)c1ccc(O)cc1O`, the Potency was inconclusive: 56.2 µM [inhibitor, partial curve]. `Cn1c(-c2ccc3nc(N)sc3c2)nc2cc(N)ccc21` was tested, and the Potency was inconclusive: 39.8 µM [inhibitor, partial curve]. For `Cc1cc(NC(=O)c2cc(-c3ccccn3)nc3c(Cl)cccc23)no1`, the “activity change, negative = inhibition” value was inactive: -31.3%. `COC(=O)c1cc(C(C)=O)n2ccccc12` was tested, and the “activity change, negative = inhibition” value was inactive: 1.74%. `COc1cccc2cc(/C(C)=N/Nc3nc(-c4cc(C)ccc4C)cs3)c(=O)oc12` was tested, and the Potency was inconclusive: 100 µM [inhibitor, partial curve, poor fit]. With `CC(C)CCOP(=O)(c1ccc(N(C)C)cc1)C(O)c1c(Cl)cccc1Cl` (configuration not stated) the “activity change, negative = inhibition” value was inactive: 1.8%. In the case of `CCCCC(CC)C(=O)Nc1ccc(Nc2ccccc2)cc1` (configuration not stated), the “activity change, negative = inhibition” value is reported as inactive: -8.16%. For `CCOC(=O)C1CN(S(=O)(=O)c2cccc(C(F)(F)F)c2)c2cc(CC(=O)OC)ccc2O1` (configuration not stated), the “activity change, negative = inhibition” value was inactive: -8.06%. `O=C(COC(=O)[C@H](Cc1ccccc1)NC(=O)c1cccs1)NC1CCCCC1` was tested, and the Potency was inconclusive: 25.1 µM [inhibitor, single point]. `COc1ccccc1CNC(=O)/C=C/c1ccc(Br)o1` was tested, and the “activity change, negative = inhibition” value was inactive: -14.8%. With `COc1cc(OC)c(OC)cc1/C=C1\Oc2cc(OCC(=O)N3Cc4ccccc4C[C@H]3C(=O)O)ccc2C1=O` the Potency was inconclusive: 50.1 µM [inhibitor, partial curve]. For `O=C(c1ccc(Cl)c(Cl)c1)N1CCC(=O)N(C(COCc2cccc(C(F)(F)F)c2)Cc2ccccc2)CC1` (configuration not stated), the Potency was inconclusive: 56.2 µM [inhibitor, partial curve, poor fit]. In the case of `CCOC(=O)c1ccc(/C=C2/C=C(c3ccccc3)N(c3ccc(Cl)c(C(=O)O)c3)C2=O)cc1`, the Potency is reported as active: 50.1 µM. With `COc1ccc2nc(C)cc(N/N=C/c3cccc(OC)c3O)c2c1` the Potency was inconclusive: 11.2 µM [inhibitor, full curve]. With `COc1cccc(/C=C2/SC(=S)N(CC(=O)NNC(=O)c3ccccc3O)C2=O)c1` the Potency was inconclusive: 39.8 µM [inhibitor, partial curve]. With `CNC(=O)N(O)C1N(/N=C/c2ccc(C)cc2)C(=S)SC1(C)C` (configuration not stated) the “activity change, negative = inhibition” value was inactive: 2.85%. In the case of `Cc1cccc(C(=O)NCc2ccco2)c1`, the activity change, negative = inhibition is reported as inactive: -2.14% [at 11.6 µM]. In the case of `COc1ccc(/C=C2/Sc3ccc(C(=O)NCCCN4CCOCC4)cc3NC2=O)cc1OC`, the Potency is reported as inconclusive: 15.8 µM [inhibitor, full curve, poor fit]. With `COc1cccc2sc3ccc(NCc4ccc5c(c4)OCO5)cc3c(=O)c12` the “activity change, negative = inhibition” value was inactive: -19.1%. `CCN(CC)c1ccc2cc(C(N)=O)/c(=N\NC(=O)c3ccncc3)oc2c1` was tested, and the Potency was inconclusive: 39.8 µM [inhibitor, partial curve]. With `N#CCNC(=O)c1nn2c(C(F)(F)F)cc(-c3ccccc3)nc2c1Br` the “activity change, negative = inhibition” value was inactive: 2.86%. With `Cc1ccc(C)c(Nc2c(F)c(F)c(F)c(F)c2C(=O)O)c1` the Potency was inconclusive: 28.2 µM [inhibitor, single point]. With `O=C(Nc1ccccc1Cl)c1ccc2nccnc2c1` the activity change, negative = inhibition was inactive: -2.28% [at 11.6 µM]. `COc1ccc2c(C)nc(Nc3nc(-c4ccccc4)cc(=O)[nH]3)nc2c1` was tested, and the Potency was inconclusive: 56.2 µM [inhibitor, partial curve]. `Cn1c(=O)n(/N=C/c2ccccc2)c2ccccc21` was tested, and the Potency was inconclusive: 28.2 µM [inhibitor, single point]. With `CC(C)(C)NS(=O)(=O)c1cc(C(=O)Nc2sccc2C#N)ccc1Cl` the Potency was inconclusive: 50.1 µM [inhibitor, partial curve]. For `N=C1/C(=C\c2coc3ccc(O)cc3c2=O)C(=O)N=C2SC=CN12`, the Potency was active: 56.2 µM. In the case of `Cc1ccc(SCc2cc(=O)c3c(=O)n(-c4ccccc4)[nH]c3[nH]2)cc1`, the Potency is reported as inconclusive: 39.8 µM [inhibitor, single point].
